The entries are a selection whose mix differs from that of the whole data set.
Molecular target: furin, P09958
Assay: furin cleavage Z-score vs untreated control; higher = more cleavage, active = 3.5 or more, inactive = 1 or less, 8 variable residues between constant flanks
Outline: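 Furin cleavage was scored on 8-mer peptides joined to a cDNA oligonucleotide and bound to magnetic beads at the N-terminus. Digestion with purified furin (1:10 enzyme:substrate, 0.01 ml, 50 mM HEPES pH 7.5, CaCl2, NaCl) lasted 7.5, 15 or 30 min. Freed DNA was tagged with adapters by PCR, sequenced and counted; the cleavage Z-score is the lowess-adjusted log count versus furin-free reactions, scaled by median absolute deviation.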

Chains of the proteins cited; added tags and fusions are not shown.
furin, P09958, UniProt P09958, whole entry: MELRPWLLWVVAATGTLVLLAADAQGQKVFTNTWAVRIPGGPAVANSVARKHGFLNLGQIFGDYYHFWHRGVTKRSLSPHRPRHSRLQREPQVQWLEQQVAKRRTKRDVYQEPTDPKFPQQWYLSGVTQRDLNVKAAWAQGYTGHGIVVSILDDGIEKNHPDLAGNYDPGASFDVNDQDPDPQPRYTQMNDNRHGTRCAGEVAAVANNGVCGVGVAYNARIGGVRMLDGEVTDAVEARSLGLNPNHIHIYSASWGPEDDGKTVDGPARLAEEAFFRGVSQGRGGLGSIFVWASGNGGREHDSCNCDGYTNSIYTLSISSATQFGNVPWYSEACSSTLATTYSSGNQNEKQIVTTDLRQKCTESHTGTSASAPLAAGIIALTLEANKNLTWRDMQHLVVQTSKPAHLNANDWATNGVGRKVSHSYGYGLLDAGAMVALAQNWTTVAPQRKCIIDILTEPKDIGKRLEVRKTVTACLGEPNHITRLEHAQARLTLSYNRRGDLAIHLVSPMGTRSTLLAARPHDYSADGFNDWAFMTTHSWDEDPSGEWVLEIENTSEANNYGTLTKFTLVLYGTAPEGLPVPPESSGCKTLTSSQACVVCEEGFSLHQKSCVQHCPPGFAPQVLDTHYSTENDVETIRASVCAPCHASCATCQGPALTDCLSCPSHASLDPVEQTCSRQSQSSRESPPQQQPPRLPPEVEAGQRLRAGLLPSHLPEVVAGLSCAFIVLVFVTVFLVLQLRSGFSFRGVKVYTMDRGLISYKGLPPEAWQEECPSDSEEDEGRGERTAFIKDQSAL

Question: Which results are given for CAAAVTSPLTAGNASASA [HC1058]?
Answer: furin cleavage Z-score (7.5 min): inactive: 0.302; furin cleavage Z-score (15 min): inactive: -1.38; furin cleavage Z-score (30 min): inactive: -0.302

Question: With CAVKSRKRRKAGNASASA [FS-149] as the sequence, how does the “furin cleavage Z-score” value (7.5 min) read?
Answer: The value was active: 11.

Question: And the “furin cleavage Z-score” value (15 min)?
Answer: Its value is active: 11.7.

Question: What about the “furin cleavage Z-score” value (30 min) of the same sequence?
Answer: Its value is active: 8.76.

Question: How did the “furin cleavage Z-score” value (7.5 min) turn out when CASSNQLQRRAGNASASA [NG1] was run?
Answer: The value was inactive: 0.397.

Question: And the “furin cleavage Z-score” value (15 min)?
Answer: Its value is 2.01.

Question: And the “furin cleavage Z-score” value (30 min)?
Answer: The value was inactive: -0.568.

Question: Which results are given for CARQKRSINLAGNASASA [FS-2587]?
Answer: furin cleavage Z-score (7.5 min): active: 7.01; furin cleavage Z-score (15 min): active: 6.9; furin cleavage Z-score (30 min): active: 10.1

Question: With CAAGQRLRRDAGNASASA [FS-395] as the sequence, how does the “furin cleavage Z-score” value (7.5 min) read?
Answer: Its value is active: 12.

Question: And the “furin cleavage Z-score” value (15 min)?
Answer: The value was active: 10.2.

Question: What about the “furin cleavage Z-score” value (30 min) of the same sequence?
Answer: Its value is active: 8.42.

Question: With CASWLGNIIMAGNASASA [HC1574] as the sequence, how does the “furin cleavage Z-score” value (7.5 min) read?
Answer: The value was inactive: -0.174.

Question: What about the “furin cleavage Z-score” value (15 min) of the same sequence?
Answer: Its value is inactive: -0.173.

Question: What about the “furin cleavage Z-score” value (30 min) of the same sequence?
Answer: The value was inactive: 0.459.

Question: What does the source list for CARQKRSIVVAGNASASA [FS-2507]?
Answer: furin cleavage Z-score (7.5 min): active: 7.83; furin cleavage Z-score (15 min): active: 9.33; furin cleavage Z-score (30 min): active: 8.84

Question: For CAEVVHSTWVAGNASASA [HC129], which “furin cleavage Z-score” value (7.5 min) is on record?
Answer: The value was inactive: -0.835.

Question: And the “furin cleavage Z-score” value (15 min)?
Answer: The value was inactive: 0.0271.

Question: And the “furin cleavage Z-score” value (30 min)?
Answer: Its value is inactive: -0.684.

Question: Which “furin cleavage Z-score” value (7.5 min) does the source give for CARCRRNKRIAGNASASA [FS-1649] here?
Answer: Its value is active: 4.5.

Question: And the “furin cleavage Z-score” value (15 min)?
Answer: Its value is active: 6.14.

Question: What about the “furin cleavage Z-score” value (30 min) of the same sequence?
Answer: The value was active: 4.22.

Question: Which results are given for CAAVSRTQRRAGNASASA [HC901]?
Answer: furin cleavage Z-score (7.5 min): 1.01; furin cleavage Z-score (15 min): 3.13; furin cleavage Z-score (30 min): 3.08

Question: Which results are given for CAAVVTSTWVAGNASASA [HC2143]?
Answer: furin cleavage Z-score (7.5 min): 1.02; furin cleavage Z-score (15 min): 2.25; furin cleavage Z-score (30 min): 1.5

Question: Which “furin cleavage Z-score” value (7.5 min) does the source give for CAGCTTPCSGAGNASASA [HC1956] here?
Answer: Its value is inactive: -0.873.

Question: What about the “furin cleavage Z-score” value (15 min) of the same sequence?
Answer: The value was inactive: -0.658.

Question: And the “furin cleavage Z-score” value (30 min)?
Answer: The value was inactive: -0.0577.

Question: Which “furin cleavage Z-score” value (7.5 min) does the source give for CAAPARWPRSAGNASASA [FS-974] here?
Answer: Its value is active: 8.41.

Question: What about the “furin cleavage Z-score” value (15 min) of the same sequence?
Answer: Its value is active: 5.86.

Question: What about the “furin cleavage Z-score” value (30 min) of the same sequence?
Answer: The value was active: 6.73.

Question: CAGGARRQRGAGNASASA [FS-1327] was tested. Which “furin cleavage Z-score” value (7.5 min) did it give?
Answer: Its value is 1.44.

Question: What about the “furin cleavage Z-score” value (15 min) of the same sequence?
Answer: Its value is 1.28.

Question: What about the “furin cleavage Z-score” value (30 min) of the same sequence?
Answer: Its value is 1.75.

Question: What does the source list for CALRRLHQWIAGNASASA [HC1139]?
Answer: furin cleavage Z-score (7.5 min): 1.13; furin cleavage Z-score (15 min): 1.26; furin cleavage Z-score (30 min): 2.5

Question: How did the “furin cleavage Z-score” value (7.5 min) turn out when CAWVCCSMSYAGNASASA [HC1988] was run?
Answer: Its value is inactive: 0.172.

Question: What about the “furin cleavage Z-score” value (15 min) of the same sequence?
Answer: Its value is inactive: 0.44.

Question: And the “furin cleavage Z-score” value (30 min)?
Answer: Its value is 1.05.

Question: What does the source list for CANVRGGRDAAGNASASA [HC593]?
Answer: furin cleavage Z-score (7.5 min): 1.4; furin cleavage Z-score (15 min): 1.66; furin cleavage Z-score (30 min): 1.07

Question: How did the “furin cleavage Z-score” value (7.5 min) turn out when CAGARRLRRFAGNASASA [FS-1196] was run?
Answer: Its value is 1.71.

Question: What about the “furin cleavage Z-score” value (15 min) of the same sequence?
Answer: The value was 2.31.

Question: What about the “furin cleavage Z-score” value (30 min) of the same sequence?
Answer: The value was 2.32.

Question: With CARKRRAPHGAGNASASA [FS-2493] as the sequence, how does the “furin cleavage Z-score” value (7.5 min) read?
Answer: The value was active: 4.63.

Question: What about the “furin cleavage Z-score” value (15 min) of the same sequence?
Answer: Its value is active: 5.64.

Question: And the “furin cleavage Z-score” value (30 min)?
Answer: Its value is active: 5.6.

Question: For CAMLEVVTSTAGNASASA [HC2266], which “furin cleavage Z-score” value (7.5 min) is on record?
Answer: Its value is 1.49.

Question: And the “furin cleavage Z-score” value (15 min)?
Answer: The value was 1.72.

Question: And the “furin cleavage Z-score” value (30 min)?
Answer: The value was 2.65.

Question: Which “furin cleavage Z-score” value (7.5 min) does the source give for CALRSRRRRPAGNASASA [FS-1600] here?
Answer: Its value is 1.5.

Question: What about the “furin cleavage Z-score” value (15 min) of the same sequence?
Answer: The value was 3.06.

Question: And the “furin cleavage Z-score” value (30 min)?
Answer: The value was 1.85.

Question: With CAWGPTDPRRAGNASASA [HC214] as the sequence, how does the “furin cleavage Z-score” value (7.5 min) read?
Answer: Its value is 2.36.

Question: And the “furin cleavage Z-score” value (15 min)?
Answer: The value was 1.81.

Question: And the “furin cleavage Z-score” value (30 min)?
Answer: Its value is 1.68.

Question: What does the source list for CARKAREVCDAGNASASA [FS-1900]?
Answer: furin cleavage Z-score (7.5 min): active: 5.27; furin cleavage Z-score (15 min): active: 5.4; furin cleavage Z-score (30 min): active: 4.27

Question: How did the “furin cleavage Z-score” value (7.5 min) turn out when CARRVRCSGAAGNASASA [FS-2802] was run?
Answer: Its value is inactive: -0.409.

Question: And the “furin cleavage Z-score” value (15 min)?
Answer: Its value is inactive: 0.495.

Question: What about the “furin cleavage Z-score” value (30 min) of the same sequence?
Answer: Its value is inactive: 0.927.

Question: CAVKPRPARSAGNASASA [FS-1499] was tested. Which “furin cleavage Z-score” value (7.5 min) did it give?
Answer: Its value is active: 10.9.

Question: And the “furin cleavage Z-score” value (15 min)?
Answer: Its value is active: 11.1.

Question: What about the “furin cleavage Z-score” value (30 min) of the same sequence?
Answer: Its value is active: 7.25.

Question: How did the “furin cleavage Z-score” value (7.5 min) turn out when CARRRRAVLPAGNASASA [FS-2372] was run?
Answer: The value was 2.18.

Question: And the “furin cleavage Z-score” value (15 min)?
Answer: The value was 1.33.

Question: And the “furin cleavage Z-score” value (30 min)?
Answer: The value was 3.45.
